Measured values reported in PMC12431652.
These are yes or no findings as the source states them, for the method shown. In cells and extracts the contact can be indirect. Some entries that bind do so weakly or less than the wild type.

Protein sequences, listed by entry. Tags and fused reporters are not part of them.
UniProt Q13263: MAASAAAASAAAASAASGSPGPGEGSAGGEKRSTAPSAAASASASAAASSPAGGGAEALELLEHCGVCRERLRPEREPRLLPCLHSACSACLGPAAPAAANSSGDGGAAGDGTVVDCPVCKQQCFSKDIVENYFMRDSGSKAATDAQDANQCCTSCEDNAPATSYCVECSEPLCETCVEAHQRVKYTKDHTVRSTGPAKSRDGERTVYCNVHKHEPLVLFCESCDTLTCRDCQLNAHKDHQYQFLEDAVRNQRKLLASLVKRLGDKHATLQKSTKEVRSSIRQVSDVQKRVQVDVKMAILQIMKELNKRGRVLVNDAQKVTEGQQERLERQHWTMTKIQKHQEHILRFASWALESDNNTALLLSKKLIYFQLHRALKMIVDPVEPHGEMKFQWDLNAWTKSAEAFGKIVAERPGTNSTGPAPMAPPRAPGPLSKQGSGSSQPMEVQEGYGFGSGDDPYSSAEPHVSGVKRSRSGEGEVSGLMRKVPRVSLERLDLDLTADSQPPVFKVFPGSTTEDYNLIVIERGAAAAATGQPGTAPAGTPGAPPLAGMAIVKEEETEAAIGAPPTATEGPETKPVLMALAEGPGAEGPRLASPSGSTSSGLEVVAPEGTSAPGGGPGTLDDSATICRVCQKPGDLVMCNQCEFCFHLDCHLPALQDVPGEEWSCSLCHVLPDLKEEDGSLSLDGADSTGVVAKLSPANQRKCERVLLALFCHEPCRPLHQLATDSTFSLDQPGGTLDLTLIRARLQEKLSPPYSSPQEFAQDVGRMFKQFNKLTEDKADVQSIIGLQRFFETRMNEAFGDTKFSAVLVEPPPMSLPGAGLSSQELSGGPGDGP

Legend:
[1] = biological target: Tripartite Motif Protein 28 (TRIM28), endogenous in A549 cells (human (endogenous in A549)) (UniProt Q13263); experiment: co-IP
[2] = biological target: PIV5 V protein expressed in PIV5-infected cells (Parainfluenza virus 5 (strain W3A)) (UniProt P11207); experiment: co-IP

| Substance | binding [1] | binding [2] |
| --- | --- | --- |
| PIV5 V protein expressed in PIV5-infected cells (from UniProt P11207 1-222) | binds |  |
| Tripartite Motif Protein 28 (TRIM28), endogenous in A549 cells (from UniProt Q13263 1-835) |  | binds |
